Assay results taken from paper PMC7862700.
The list shows a part of the results, in another mix than the full data. For part of these data: At the low end of the ranking, values are background and their order means little. Some of the results follow. For part of these data: The source does not settle which construct or isoform was used.

Protein sequences, listed by entry. Tags and fused reporters are not part of them. Lines headed by an entry give the natural chain unless they say otherwise; changes in a name come on top.
UniProt P32519: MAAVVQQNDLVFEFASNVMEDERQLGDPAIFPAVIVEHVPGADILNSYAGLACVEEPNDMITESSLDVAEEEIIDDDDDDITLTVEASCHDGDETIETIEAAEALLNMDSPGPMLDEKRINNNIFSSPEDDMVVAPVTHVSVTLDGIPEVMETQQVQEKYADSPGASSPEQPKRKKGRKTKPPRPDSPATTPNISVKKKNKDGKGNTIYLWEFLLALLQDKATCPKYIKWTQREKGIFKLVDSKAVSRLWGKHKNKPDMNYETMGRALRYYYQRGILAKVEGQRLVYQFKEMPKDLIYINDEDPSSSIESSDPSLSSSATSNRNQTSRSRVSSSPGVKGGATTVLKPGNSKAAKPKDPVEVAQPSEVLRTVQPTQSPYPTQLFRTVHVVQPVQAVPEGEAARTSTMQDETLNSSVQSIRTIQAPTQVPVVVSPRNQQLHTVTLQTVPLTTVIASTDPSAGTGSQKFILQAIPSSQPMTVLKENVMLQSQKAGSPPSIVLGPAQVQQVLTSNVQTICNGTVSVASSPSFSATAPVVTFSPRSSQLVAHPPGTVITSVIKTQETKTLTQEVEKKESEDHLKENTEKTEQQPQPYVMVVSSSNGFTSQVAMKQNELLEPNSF
UniProt P50549: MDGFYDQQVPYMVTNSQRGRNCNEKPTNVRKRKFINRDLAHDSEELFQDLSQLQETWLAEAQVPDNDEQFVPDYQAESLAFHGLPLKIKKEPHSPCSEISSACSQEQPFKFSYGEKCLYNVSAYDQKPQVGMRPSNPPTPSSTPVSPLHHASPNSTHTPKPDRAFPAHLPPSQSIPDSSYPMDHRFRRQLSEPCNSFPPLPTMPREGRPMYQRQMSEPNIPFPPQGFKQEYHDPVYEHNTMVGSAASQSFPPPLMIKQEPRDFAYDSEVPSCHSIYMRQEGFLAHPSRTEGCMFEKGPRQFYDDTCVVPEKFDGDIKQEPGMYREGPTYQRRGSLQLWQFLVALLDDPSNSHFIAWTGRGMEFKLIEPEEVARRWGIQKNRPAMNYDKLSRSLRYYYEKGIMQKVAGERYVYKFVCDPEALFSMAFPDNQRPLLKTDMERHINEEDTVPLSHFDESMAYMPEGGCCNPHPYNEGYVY

How the values were obtained:
Assay in all cases: DAPPL (digital affinity profiling via proximity ligation, sequencing)
Settings in all cases: 10 mM Tris-HCl pH 7.5, 50 mM NaCl, 1 mM DTT, 4% glycerol, room temperature, 30 min; GST-TFs on glutathione beads, 16-mer random dsDNA library, 0.1% …; high values mean tight binding; double strand, one strand shown; scale: fold enrichment (6-mer frequency, TF over GST control)
ERG = biological target: T1, ERG (UniProt P11308)
T1 sequence: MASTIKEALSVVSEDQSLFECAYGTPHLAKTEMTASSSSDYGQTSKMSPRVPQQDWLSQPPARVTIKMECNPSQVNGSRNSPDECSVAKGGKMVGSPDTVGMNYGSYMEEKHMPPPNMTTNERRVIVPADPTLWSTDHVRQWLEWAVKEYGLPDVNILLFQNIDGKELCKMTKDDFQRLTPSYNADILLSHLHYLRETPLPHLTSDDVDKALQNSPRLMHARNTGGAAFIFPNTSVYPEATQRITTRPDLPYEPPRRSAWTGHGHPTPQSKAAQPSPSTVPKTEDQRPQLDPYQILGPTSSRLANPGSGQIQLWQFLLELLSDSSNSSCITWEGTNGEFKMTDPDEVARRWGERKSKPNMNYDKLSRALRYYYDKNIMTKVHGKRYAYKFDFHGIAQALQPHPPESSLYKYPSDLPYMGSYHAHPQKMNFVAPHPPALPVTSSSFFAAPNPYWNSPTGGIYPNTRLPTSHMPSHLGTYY

ELF1 = ELF1 (UniProt P32519)
ELK4 = biological target: T2, ELK4 (UniProt P28324-2)
T2 sequence: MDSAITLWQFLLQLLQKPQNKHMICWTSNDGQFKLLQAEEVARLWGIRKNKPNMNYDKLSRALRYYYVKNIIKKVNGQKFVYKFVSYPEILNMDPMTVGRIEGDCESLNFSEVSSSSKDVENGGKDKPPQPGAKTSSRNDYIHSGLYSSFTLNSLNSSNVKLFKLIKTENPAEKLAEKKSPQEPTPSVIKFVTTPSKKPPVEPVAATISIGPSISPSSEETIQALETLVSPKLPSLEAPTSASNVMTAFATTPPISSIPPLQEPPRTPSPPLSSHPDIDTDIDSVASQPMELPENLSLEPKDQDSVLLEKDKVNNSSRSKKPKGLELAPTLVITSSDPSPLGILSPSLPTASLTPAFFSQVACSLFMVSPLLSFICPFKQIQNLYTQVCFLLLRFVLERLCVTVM

ETV4 = biological target: T3, ETV4 (UniProt P43268)
T3 sequence: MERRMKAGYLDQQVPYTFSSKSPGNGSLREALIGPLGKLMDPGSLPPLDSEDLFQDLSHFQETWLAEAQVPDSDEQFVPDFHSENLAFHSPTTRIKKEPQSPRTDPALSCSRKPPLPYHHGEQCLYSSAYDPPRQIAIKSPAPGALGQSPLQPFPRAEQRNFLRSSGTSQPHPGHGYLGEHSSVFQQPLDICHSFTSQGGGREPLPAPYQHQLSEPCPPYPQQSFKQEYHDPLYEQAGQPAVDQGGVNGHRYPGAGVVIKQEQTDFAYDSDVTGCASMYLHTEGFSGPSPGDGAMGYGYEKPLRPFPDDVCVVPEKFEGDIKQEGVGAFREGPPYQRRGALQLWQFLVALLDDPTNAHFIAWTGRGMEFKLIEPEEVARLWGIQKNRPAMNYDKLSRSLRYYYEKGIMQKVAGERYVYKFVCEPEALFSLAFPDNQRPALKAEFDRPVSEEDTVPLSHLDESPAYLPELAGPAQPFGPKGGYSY

ETV1 = ETV1 (UniProt P50549)
ERF = biological target: T4, ERF (UniProt P50548)
T4 sequence: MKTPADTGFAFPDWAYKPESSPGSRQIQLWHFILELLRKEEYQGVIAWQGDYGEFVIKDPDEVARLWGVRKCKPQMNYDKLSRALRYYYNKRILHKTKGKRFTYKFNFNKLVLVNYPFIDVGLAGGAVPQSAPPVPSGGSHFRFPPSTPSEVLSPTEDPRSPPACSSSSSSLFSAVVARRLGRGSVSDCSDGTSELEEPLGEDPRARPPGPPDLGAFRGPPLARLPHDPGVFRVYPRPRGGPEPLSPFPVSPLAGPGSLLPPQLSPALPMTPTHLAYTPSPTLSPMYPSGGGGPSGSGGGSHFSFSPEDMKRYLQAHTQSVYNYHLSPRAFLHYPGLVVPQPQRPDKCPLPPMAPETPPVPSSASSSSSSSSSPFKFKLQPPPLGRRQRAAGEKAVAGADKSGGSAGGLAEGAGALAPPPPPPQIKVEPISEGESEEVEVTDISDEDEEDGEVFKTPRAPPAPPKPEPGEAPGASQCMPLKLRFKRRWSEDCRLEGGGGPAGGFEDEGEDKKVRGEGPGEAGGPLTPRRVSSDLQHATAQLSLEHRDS

| Sequence | binding signal (ERG) | binding signal (ELF1) | binding signal (ELK4) | binding signal (ETV4) | binding signal (ETV1) | binding signal (ERF) |
| --- | --- | --- | --- | --- | --- | --- |
| GGGAGC | 0.414 | 0.395 | 0.34 | 0.388 | 0.381 | 0.403 |
| GTGTGC | 0.849 | 0.894 | 0.901 | 0.839 | 0.92 | 0.828 |
| TAGTGA | 0.566 | 0.528 | 0.639 | 0.539 | 0.534 | 0.588 |
| GGGGCA | 0.719 | 0.695 | 0.768 | 0.635 | 0.688 | 0.782 |
| CAGGGA | 0.517 | 0.494 | 0.449 | 0.501 | 0.499 | 0.52 |
| GAGCTA | 0.931 | 0.916 | 0.925 | 0.907 | 0.987 | 0.988 |
| GGCCGG | 0.644 | 0.493 | 0.537 | 0.604 | 0.616 | 0.529 |
| CAGGGG | 0.543 | 0.588 | 0.535 | 0.584 | 0.512 | 0.634 |
| CGGTGA | 0.442 | 0.5 | 0.438 | 0.454 | 0.494 | 0.444 |
| AAGAGG | 0.872 | 0.861 | 0.829 | 0.842 | 0.945 | 0.862 |
| GAGATC | 0.466 | 0.467 | 0.465 | 0.473 | 0.483 | 0.45 |
| CCAGCG | 0.658 | 0.624 | 0.727 | 0.619 | 0.612 | 0.622 |
| AGAGGG | 0.741 | 0.72 | 0.652 | 0.712 | 0.73 | 0.72 |
| AGCGAG | 0.617 | 0.658 | 0.574 | 0.629 | 0.656 | 0.637 |
| GGCCCA | 0.875 | 0.835 | 0.877 | 0.828 | 0.82 | 0.767 |
| CAGAGG | 0.662 | 0.638 | 0.623 | 0.633 | 0.617 | 0.652 |
| AGCTGG | 0.906 | 0.888 | 0.941 | 0.933 | 0.823 | 0.857 |
| CGGGTC | 0.714 | 0.721 | 0.559 | 0.691 | 0.737 | 0.737 |
| GTAAGT | 0.739 | 0.719 | 0.745 | 0.738 | 0.821 | 0.778 |
| GAATCG | 0.635 | 0.617 | 0.661 | 0.582 | 0.654 | 0.603 |
| AAGAGT | 0.837 | 0.896 | 0.899 | 0.859 | 0.888 | 0.936 |
| CGGGCG | 0.469 | 0.442 | 0.511 | 0.416 | 0.452 | 0.456 |
| GCGGCG | 0.81 | 0.773 | 0.751 | 0.822 | 0.768 | 0.68 |
| TCAGGC | 0.746 | 0.757 | 0.722 | 0.766 | 0.651 | 0.664 |
| GACGAG | 0.521 | 0.567 | 0.542 | 0.576 | 0.552 | 0.547 |
| TGAGGA | 0.678 | 0.691 | 0.671 | 0.645 | 0.677 | 0.623 |
| GACCAC | 0.845 | 0.927 | 0.85 | 0.907 | 0.834 | 0.881 |

Taken from above.
Under binding signal (ERG), AGCGAG has the entry 0.617
Under binding signal (ETV4), GACGAG has the entry 0.576
